The target of assay [1] is proliferating cell nuclear antigen (PCNA) (human (endogenous in HAP1)) (UniProt P12004). The assay can be described thus: proximity ligation; in situ PLA on fixed WT HAP1 cells, untreated or treated with ATX-101 (20 μM) 5 times with 1 h interval, fixed 1–4 h after the last treatment.
The target is the same in assay [2]. The assay can be described thus: co-IP; Dynabeads Protein A cross-linked (BS3) with α-PCNA (PC10) or α-ENO1 (ab227978); 2 mg HAP1 cytosolic cell extract, 4 °C overnight; washes with 600 mM NaCl; western blot; both directions. A general note: In western blotting, separated proteins are transferred to a membrane and probed.
Assay [3] has the same target. The assay can be described thus: condition: only cells treated with ATX-101 (20 μM) 5 times with 1 h intervals; proximity ligation; in situ PLA on fixed WT HAP1 cells, untreated or treated with ATX-101 (20 μM) 5 times with 1 h interval, fixed 1–4 h after the last treatment.
The target of assay [4] is alpha-enolase (ENO1) (human (endogenous in HAP1)) (UniProt P06733). The assay can be described thus: co-IP; Dynabeads Protein A cross-linked (BS3) with α-PCNA (PC10) or α-ENO1 (ab227978); 2 mg HAP1 cytosolic cell extract, 4 °C overnight; washes with 600 mM NaCl; western blot; both directions.
Assay [5] concerns the target proliferating cell nuclear antigen (PCNA) (human (endogenous in HAP1)) (UniProt P12004). The assay can be described thus: proximity ligation; synthetic ATX-101 (20 μM, 5 times with 1 h interval) added to WT HAP1 cells; loss of the ENO1 - PCNA PLA signal; only the binder purified.

The chains behind the UniProt entries cited, without tags or fusion partners.
UniProt P12004: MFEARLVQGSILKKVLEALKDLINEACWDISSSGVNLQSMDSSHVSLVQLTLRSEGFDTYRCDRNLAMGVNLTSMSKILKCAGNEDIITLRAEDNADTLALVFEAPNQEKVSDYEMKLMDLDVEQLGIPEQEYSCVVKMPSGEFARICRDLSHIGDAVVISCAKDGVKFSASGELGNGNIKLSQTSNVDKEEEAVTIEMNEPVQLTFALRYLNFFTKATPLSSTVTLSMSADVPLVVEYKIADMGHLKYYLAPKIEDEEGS
UniProt P06733: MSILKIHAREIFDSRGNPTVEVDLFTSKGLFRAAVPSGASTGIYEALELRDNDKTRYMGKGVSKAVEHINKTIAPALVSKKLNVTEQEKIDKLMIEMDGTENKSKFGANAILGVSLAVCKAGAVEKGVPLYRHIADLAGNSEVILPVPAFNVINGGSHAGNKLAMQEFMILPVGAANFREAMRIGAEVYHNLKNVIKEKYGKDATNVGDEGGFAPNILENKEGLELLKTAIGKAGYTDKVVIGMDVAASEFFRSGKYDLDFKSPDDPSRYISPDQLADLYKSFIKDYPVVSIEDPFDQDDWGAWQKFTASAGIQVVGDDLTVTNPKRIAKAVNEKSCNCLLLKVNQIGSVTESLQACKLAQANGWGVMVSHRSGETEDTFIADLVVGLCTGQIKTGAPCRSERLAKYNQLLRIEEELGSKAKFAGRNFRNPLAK

These are yes or no findings as the source states them, for the method shown. In cells and extracts the contact can be indirect. Some entries that bind do so weakly or less than the wild type.

For “alpha-enolase (ENO1) (from UniProt P06733 1-434) (enzyme)”, the figures for the binding entry in assay [1], in assay [2] and in assay [3] were “binds”, “binds” and “no binding”, respectively. Turning to “proliferating cell nuclear antigen (PCNA) (from UniProt P12004 1-261)”, in assay [4], the binding entry was “binds”. For MDRWLVKWKKKRKIRRRRRRRRRRR (N-terminal acetyl (Ac-)) [ATX-101], the binding entry in assay [5] is given as “binds”.

Source of the values: publication PMC9937922.
